These are yes or no findings as the source states them, for the method shown. Some entries that bind do so weakly or less than the wild type. Blank lines part the entries; values can stand above or below the binder they belong to.
Tests used:
U5 snRNP200 (human) [1] = molecular target: U5 snRNP200 (human) (UniProt O75643); experiment: flow cytometry, PE-conjugated antibody on primary AML cells
U5 snRNP200 (human) [2] = molecular target: U5 snRNP200 (human) (UniProt O75643); experiment: flow cytometry, PE-conjugated antibody on AML cell lines

Chains of the proteins cited; added tags and fusions are not shown.
UniProt O75643: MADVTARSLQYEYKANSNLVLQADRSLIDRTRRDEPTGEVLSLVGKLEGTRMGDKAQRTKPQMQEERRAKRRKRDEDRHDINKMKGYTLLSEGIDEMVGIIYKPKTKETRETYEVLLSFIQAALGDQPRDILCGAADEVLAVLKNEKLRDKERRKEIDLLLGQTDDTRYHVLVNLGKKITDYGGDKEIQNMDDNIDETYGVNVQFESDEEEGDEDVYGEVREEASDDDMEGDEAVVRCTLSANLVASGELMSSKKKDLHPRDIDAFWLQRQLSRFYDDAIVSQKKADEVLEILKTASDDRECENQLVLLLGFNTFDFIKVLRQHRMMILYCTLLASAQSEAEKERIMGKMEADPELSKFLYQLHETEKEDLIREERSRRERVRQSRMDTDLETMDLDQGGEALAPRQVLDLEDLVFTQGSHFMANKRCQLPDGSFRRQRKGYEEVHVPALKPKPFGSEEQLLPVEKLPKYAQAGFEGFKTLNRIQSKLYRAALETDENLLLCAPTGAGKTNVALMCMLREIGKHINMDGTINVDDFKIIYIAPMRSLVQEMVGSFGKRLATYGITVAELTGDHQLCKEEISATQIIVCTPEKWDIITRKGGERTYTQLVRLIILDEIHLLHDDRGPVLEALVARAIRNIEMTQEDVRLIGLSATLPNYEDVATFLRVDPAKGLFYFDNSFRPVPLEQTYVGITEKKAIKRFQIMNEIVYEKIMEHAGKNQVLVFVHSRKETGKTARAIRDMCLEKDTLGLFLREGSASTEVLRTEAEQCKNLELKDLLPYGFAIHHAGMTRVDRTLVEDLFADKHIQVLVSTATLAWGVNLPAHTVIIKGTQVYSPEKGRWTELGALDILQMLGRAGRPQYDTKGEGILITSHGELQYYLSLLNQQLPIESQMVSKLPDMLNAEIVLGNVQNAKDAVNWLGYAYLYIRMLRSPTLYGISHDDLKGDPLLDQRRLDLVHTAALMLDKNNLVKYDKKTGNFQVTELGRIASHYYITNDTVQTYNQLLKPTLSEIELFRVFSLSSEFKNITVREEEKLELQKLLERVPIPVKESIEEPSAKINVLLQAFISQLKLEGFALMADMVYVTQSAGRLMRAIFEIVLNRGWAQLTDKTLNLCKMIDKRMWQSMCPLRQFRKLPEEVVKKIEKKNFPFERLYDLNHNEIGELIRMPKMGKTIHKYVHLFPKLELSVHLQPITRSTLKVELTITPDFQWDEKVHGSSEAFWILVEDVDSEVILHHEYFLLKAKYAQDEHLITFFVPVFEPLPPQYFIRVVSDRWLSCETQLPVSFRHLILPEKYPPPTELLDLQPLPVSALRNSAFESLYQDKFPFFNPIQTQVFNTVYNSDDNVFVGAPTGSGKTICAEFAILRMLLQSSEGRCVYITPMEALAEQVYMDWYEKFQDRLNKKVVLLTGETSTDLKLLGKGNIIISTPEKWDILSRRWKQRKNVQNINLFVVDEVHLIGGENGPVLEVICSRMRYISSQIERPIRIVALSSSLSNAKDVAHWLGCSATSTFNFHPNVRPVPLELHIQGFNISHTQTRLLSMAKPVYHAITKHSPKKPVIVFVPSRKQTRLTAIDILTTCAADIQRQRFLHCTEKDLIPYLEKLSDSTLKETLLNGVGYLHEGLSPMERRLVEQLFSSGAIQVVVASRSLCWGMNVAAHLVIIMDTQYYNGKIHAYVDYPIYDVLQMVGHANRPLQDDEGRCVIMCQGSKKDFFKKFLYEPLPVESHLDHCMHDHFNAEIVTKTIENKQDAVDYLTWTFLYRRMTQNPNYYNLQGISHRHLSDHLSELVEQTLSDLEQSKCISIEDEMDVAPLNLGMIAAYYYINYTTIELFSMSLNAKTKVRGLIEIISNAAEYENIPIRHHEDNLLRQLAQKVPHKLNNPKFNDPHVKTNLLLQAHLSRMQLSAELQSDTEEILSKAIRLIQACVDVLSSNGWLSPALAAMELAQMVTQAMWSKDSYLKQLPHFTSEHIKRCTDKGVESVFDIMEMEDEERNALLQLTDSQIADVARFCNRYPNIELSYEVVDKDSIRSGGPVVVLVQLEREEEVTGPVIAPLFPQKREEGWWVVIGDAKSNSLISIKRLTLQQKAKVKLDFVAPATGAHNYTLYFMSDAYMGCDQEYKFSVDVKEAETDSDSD

binding (U5 snRNP200 (human) [1]): binds
binding (U5 snRNP200 (human) [2]): binds
B1: anti-U5 snRNP200 antibody clone 23 (antibody, V domains shown)
VH: QVQLQQWGAGLLKPSETLSLTCAVYGGSFSGYYWSWIRQPPGKGLEWIGEINHSGSTNYNPSLKSRVTISVDTSKNQFSLKLSSVTAADTAVYYCARGRSTSPLDYYYYYMDVWAKGTTVTVS
VL: SSELTQDPAVSVALGQTVRITCQGDFLRSYYASWYQQKPGQAPVLVIFGKNKRPSGIPDRFSGSSSGNTASLTITGAQAEDEADYYCNSRDRSGNHLVFGGGTKLTVL

binding (U5 snRNP200 (human) [1]): binds
binding (U5 snRNP200 (human) [2]): binds
B2: anti-U5 snRNP200 antibody clone 37 (antibody, V domains shown)
VH: QVQLVESGGGVVQPGRSLRLSCAASGFTFSTYGMHWVRQAPGKGLEWVAVIWYDGSNTYYADSVKGRFTISRDNSKNTLYLQIKSLRAEDTAVYYCARGRGYSAQGNRNRAYYFDYWGQGTLVTVS
VL: EIVMTQSPATLSVSPGERVILSCRASQSVSSNLAWYQQKPGQPPRLLIYGAFTRVTGVPARFSGSGSGTEFTLTISSLQSEDFAVYYCQQYNDRPPYTFGQGTKLEIKR

Source: patent US20260263518A1
